Tested on: STZ-induced diabetic rats
Assay: Oral mixed-carbohydrate tolerance test (OMCTT) in STZ-induced diabetic rats (Example 9)
Format: in vivo, rat
Conditions: group characteristic, mean ± S.E.M. (n = 5)
Experimental: Study in diabetic rats with mixed carbohydrates. Diabetic rats, induced by intravenous injection of streptozotocin (STZ; 40 mg/kg), were used to determining plasma glucose concentration (PG) 1 hr after oral mixed-carbohydrate tolerance test (OMCTT). […] Blood was collected via the caudal artery immediately before dosing and 0.5, 1, 2, and 3 hr after dosing. The glucose concentration measurement in plasma used Glucose CII-Test Wako kit (Wako Pure Chemicals Industries, Ltd., Osaka, Japan). The variables used for efficacy assessment were the measurement values of the plasma glucose concentration and the area under the curve for plasma glucose concentration through 1 hr after loading (ΔAUC0-1 hr). The ΔAUC0-1 hr for plasma glucose was calculated based on the trapezoid method using the change of plasma glucose concentrations from pre-value (0 hr).

| SMILES | Body weight (0.03 mg/kg oral) [g] | Body weight (0.1 mg/kg oral) |
| --- | --- | --- |
| Cc1cc(OCCCNCCC(N)=O)ccc1Cc1c(O[C@@H]2O[C@H](CO)[C@@H](O)[C@H](O)[C@H]2O)n[nH]c1C(C)C [KGA-2727] | 283 ± 5 | 286 ± 3 g |
| Cc1cc(OCCCNCC(C)(C)C(N)=O)ccc1Cc1c(O[C@@H]2O[C@H](CO)[C@@H](O)[C@H](O)[C@H]2O)n[nH]c1C(C)C [mizagliflozin, 3-(3-{4-[3-(β-D-glucopyranosyloxy)-5-isopropyl-1H-pyrazol-4-ylmethyl-]-3-methylphenoxy}propylamino)-2,2-dimethylpropionamide] | 298 ± 8 | 296 ± 8 g |
| Cc1cc(OCCCNCC(N)=O)ccc1Cc1c(O[C@@H]2O[C@H](CO)[C@@H](O)[C@H](O)[C@H]2O)n[nH]c1C(C)C [KGA-2588] | 302 ± 8 | 294 ± 5 g |
| Cc1cc(OCCCN)ccc1Cc1c(O[C@@H]2O[C@H](CO)[C@@H](O)[C@H](O)[C@H]2O)n[nH]c1C(C)C [KGA-2586] | 295 ± 7 | 286 ± 6^ g |
| CC(C)c1[nH]nc(O[C@@H]2O[C@H](CO)[C@@H](O)[C@H](O)[C@H]2O)c1Cc1ccc(CCCC(=O)NC(C)(C)C(=O)N2CCNCC2)cc1 [KGA-2891] |  | 300 ± 9 g |

Source: patent US11596644B2, “Method for treating post-prandial hypoglycemia” (AVOLYNT, priority 2018, dated 2023)
